This passage reports binding results from article doi:10.1101/2021.11.05.467472 (bioRxiv, 2021).

Holding throughout (test): BLI
For experiment [1], the target named is Rubisco with terminal His-tag (bait of the BLI binding screen) (H. neapolitanus) (UniProt O85040).
The target of experiment [2] is SUMO-S1D (CsoS1D shell protein, SUMO fusion) (H. neapolitanus) (UniProt D0KZ73).
In experiment [3] the target is T1, SUMO-S4B (CsoS4B shell protein, SUMO fusion) (H. neapolitanus) (UniProt O85044).
T1 sequence: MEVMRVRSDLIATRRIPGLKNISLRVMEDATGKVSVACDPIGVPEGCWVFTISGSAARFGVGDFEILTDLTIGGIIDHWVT

Experiment [4] addresses T2, SUMO-S1B (CsoS1B shell protein, SUMO fusion) (H. neapolitanus) (UniProt P45690).
T2 sequence: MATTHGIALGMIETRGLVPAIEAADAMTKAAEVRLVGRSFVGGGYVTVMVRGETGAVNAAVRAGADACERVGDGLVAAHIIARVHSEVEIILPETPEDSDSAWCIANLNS

These are yes or no findings as the source states them, for the method shown. For some of these results: Sequences can lack the tags named with a protein.

Take “ΔNTD_(1-37)CsoSCA (from UniProt O85042 38-514) (domain or fragment)”: in experiment [1], the binding result was “no binding”.

For the substance “untagged CsoSCA (carboxysomal carbonic anhydrase, full length) (from UniProt O85042 1-514) (enzyme)”, the binding entry in experiment [2], in experiment [3] and in experiment [4] was “no binding (tested: 1 μM)” each time.
